Results: PubChem BioAssay AID651595 (National Center for Advancing Translational Sciences (NCATS), 2012)
The whole screen tested about 1,100 compounds, of which fewer than 10 were called active. Roughly 6% stayed inconclusive and do not appear here. Calls come from the whole dose curve; as a rule, active = well fitted cell-killing curve with a large enough effect; inconclusive = small, poorly fitted or top-dose-only effect; inactive = flat fitted curve, though single readings scatter. This is one part of the list.

assay: qHTS of Nrf2 Activators: Hit Validation in Cytotox Assay; conditions: Cell viability counter-screen for Nrf2 activator hits; at 46.1 µM (top of the series);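 note: compound exposure lasted 24 hours before the ATP readout; 0% is about no effect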
Text: Many diseases have some form of oxidative stress injury and ties to inflammation, causing a host of problems for the patient. The antioxidant response element (ARE) plays an important role in alleviating the harmful effects of oxidative stress. The antioxidant response element (ARE) is a transcriptional regulatory element involved in the activation of genes coding for a number of antioxidant proteins and detoxifying enzymes. These enzymes work in concert to protect tissues from oxidative insults and chemical toxicities in human hepatocytes and immune cells. The protective effects of ARE activation are primarily triggered through Nrf2 (NF-E2-related factor) binding to and activating AREs. It is known that Nrf2 controls the production of over 250 antioxidant and detoxification proteins (Hu et al., 2006), thereby protecting tissues by increasing cellular antioxidant content and suppressing inflammatory signaling pathways. The transcription factor Nrf2 is a central link between oxidative chemicals, such as phenolic antioxidants and electrophilic compounds, and the activation of ARE. Nrf2 levels are constitutively low as a consequence of its interaction with Keap1, which targets its degradation (Zipper and Mulcahy, 2002). Electrophiles react with key cysteine residues in Keap1, releasing Nrf2 and allowing its translocation to the nucleus. Once within the nucleus, Nrf2 complexes with coactivators such as p300, and binds to the AREs to induce gene transcription of cytoprotective enzymes, resulting in the prevention of toxicity. Activation of Nrf2 protects tissues by increasing cellular antioxidant content and suppressing inflammatory signaling pathways. Identifying novel and potent Nrf2 activators by using the AREc32 cell line to detect ARE activation by small molecules will lead to the identification and development of probes to study protective pathways in multiple tissues. These specific probes are essential to study the ARE pathway, and eventually to determine whether this pathway does activate genes that could protect against a host of diseases, including cardiovascular diseases, obesity, diabetes, Alzheimer's, and Parkinson's disease.
This project's aim is to identify novel and potent Nrf2 activators by using the AREc32 cell line to detect ARE activation by small molecules, which will lead to the identification and development of probes to study the ARE pathway. Cytotoxic compounds are flagged as active, and inactivity is desired in this assay.
NIH Chemical Genomics Center [NCGC]
NIH Molecular Libraries Probe Centers Network [MLPCN]
Assay Submitter (PI): Curtis Klaassen, University of Kansas Medical Center
Cell viability after compound treatment was measured using a luciferase-coupled ATP quantitation assay (CellTiter-Glo, Promega) in AREc32_fluc cells. The change of intracellular ATP content indicates the number of metabolically competent cells after compound treatment. AREc32_fluc cells were harvested from T225 flask and resuspended in phenol red free OPTI-MEM medium with 5% FBS. Then 5 microL of 200,000 cells/ml resuspended cells was dispensed into each well of white, solid bottom, 1536-well tissue culture-treated plates using a Multidrop Combi dispenser. After overnight culture at 37 degrees C with 5% CO2, a total of 23 nL of compounds at 7 selected concentrations from the cherry pick or positive control (40 uM stock of CDDO-IM and 2 mM of tBHQ) in DMSO was transferred to each well of the assay plate using a pintool (Kalypsys, San Diego, CA), and the plates were further incubated at 37 degrees C with 5% CO2 for 24 hours. After that, 4 microL of CellTilter-GloTM luminescent substrate mix (Promega) was added to each well. The plate was incubated at room temperature for 30 minutes. The plates were measured on a ViewLux plate reader (PerkinElmer) with clear filter.

Compound	activity change, negative = cytotoxicity
Fc1cccc(F)c1-c1nc(-c2ccc(Cl)cc2)no1	inactive: 0.737%
O=C(Nc1ccc(Cl)c(Cl)c1)c1ccco1	inactive: -1.46%
O=C(/C=C/c1ccccc1)c1c(O)n(CCc2ccccc2)c(=O)[nH]c1=O	inactive: 10.8%
Clc1ccccc1Nc1ncnc(-n2cccc2)n1	inactive: -0.699%
O=C1c2ccccc2-c2cc3ccccc3cc21	inactive: -15.3%
O=c1[nH]c(=S)[nH]c(O)c1N=Nc1ccc(S(=O)(=O)N2CCc3ccccc32)cc1	inactive: -9.45%
CC(=CCOc1ccc2ccc(=O)oc2c1)C1=CC(=O)C(C)(C)O1	inactive: 0.266%
CCOc1ccc(-n2c(O)c(N=Nc3ccc([N+](=O)[O-])cc3)c(=O)[nH]c2=O)cc1	inactive: 4.98%
CCCCn1c(O)c(C(=O)/C=C/c2ccc3c(c2)OCO3)c(=O)[nH]c1=O	inactive: -1.42%
O=C(O)c1ccc([N+](=O)[O-])c([N+](=O)[O-])c1	inactive: 13.5%
